{"sequences": {"note": "Sequences of proteins named here, by UniProt entry; tags and fusion partners are left off. A change or cut given only in a name is not applied to a line headed by its entry.", "UniProt Q93009, whole entry": "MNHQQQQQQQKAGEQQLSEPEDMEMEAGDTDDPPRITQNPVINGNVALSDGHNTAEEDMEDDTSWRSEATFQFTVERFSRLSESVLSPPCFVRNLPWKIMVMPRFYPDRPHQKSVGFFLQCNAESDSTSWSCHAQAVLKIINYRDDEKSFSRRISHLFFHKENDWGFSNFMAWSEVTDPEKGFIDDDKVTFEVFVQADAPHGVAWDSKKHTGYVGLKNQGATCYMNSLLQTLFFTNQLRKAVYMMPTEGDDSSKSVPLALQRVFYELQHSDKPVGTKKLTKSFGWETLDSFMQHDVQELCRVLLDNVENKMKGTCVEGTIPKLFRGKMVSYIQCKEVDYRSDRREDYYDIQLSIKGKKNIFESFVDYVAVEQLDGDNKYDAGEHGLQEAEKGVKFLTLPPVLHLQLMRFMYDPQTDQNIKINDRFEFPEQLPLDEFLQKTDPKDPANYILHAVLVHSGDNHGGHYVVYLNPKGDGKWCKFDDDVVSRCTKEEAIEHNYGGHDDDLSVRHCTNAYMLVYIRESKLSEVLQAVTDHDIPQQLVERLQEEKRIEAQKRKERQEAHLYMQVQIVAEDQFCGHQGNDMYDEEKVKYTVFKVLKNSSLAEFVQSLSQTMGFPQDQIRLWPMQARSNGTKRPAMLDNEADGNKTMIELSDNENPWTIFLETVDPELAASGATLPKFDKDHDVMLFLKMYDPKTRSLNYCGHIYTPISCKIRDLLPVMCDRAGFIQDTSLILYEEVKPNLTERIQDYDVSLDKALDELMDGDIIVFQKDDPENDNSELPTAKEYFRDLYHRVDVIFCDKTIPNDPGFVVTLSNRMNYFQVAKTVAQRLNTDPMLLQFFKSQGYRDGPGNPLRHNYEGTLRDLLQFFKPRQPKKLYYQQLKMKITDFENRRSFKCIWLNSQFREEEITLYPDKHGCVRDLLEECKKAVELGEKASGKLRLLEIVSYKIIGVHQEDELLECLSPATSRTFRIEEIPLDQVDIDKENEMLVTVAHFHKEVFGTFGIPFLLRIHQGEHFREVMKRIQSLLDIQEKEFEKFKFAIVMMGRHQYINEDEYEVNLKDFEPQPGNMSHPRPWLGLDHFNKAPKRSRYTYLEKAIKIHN"}, "source": "patent US9868736B2", "about": "“Deubiquitinase inhibitors and methods for use of the same” (THE REGENTS OF THE UNIVERSITY OF MICHIGAN, priority 2013, dated 2018)", "key": {"Usp5": {"target": "T1, Usp5 (Homo sapiens, UniProt P45974)", "T1 construct": "endogenous in cells; host or cells: A375 and A375R melanoma cells (also SK-Mel28)", "T1 sequence (P45974 1-858)": "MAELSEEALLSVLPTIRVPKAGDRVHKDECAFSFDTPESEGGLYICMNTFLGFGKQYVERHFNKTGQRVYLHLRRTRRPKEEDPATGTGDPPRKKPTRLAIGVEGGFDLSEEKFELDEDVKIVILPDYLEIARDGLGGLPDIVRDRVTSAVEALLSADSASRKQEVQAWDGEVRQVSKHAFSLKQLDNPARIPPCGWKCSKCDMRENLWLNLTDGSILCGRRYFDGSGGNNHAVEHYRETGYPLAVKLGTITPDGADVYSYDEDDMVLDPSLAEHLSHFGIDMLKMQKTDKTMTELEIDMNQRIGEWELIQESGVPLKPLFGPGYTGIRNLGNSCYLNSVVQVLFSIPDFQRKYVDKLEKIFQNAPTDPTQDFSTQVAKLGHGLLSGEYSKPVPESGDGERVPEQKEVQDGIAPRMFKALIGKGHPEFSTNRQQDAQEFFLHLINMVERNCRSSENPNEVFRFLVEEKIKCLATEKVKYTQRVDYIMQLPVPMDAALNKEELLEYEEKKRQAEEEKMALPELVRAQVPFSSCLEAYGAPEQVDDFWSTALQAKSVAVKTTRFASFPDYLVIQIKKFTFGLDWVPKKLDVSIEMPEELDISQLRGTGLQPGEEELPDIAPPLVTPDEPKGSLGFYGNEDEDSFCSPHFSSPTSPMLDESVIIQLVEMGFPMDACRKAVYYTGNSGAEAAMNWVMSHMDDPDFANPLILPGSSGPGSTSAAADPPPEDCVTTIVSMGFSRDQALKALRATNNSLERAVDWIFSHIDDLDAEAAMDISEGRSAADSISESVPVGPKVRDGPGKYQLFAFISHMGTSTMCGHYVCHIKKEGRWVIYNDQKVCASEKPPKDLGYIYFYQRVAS", "assay": "DUB activity (HA-Ub labelling) in treated cells", "assay_type": "cell-based", "conditions": "vemurafenib sensitive and resistant A375 cells", "protocol": "DUB activity was assessed by HA blotting and confirmed by monitoring a DUBs mobility shift due to its covalent modification with HA-Ub. DUB inhibition was detected in vemurafenib-responsive (SK-Mel28 and A375) cells and we noted a consistent change in a DUB (100 kDa) identified as Usp5 by LC/MS/MS of the excised protein band (data not shown) and direct immunoblotting. […] DUB activity was also compared in control and BRAF knockdown (KD) cells. BRAF shRNA reduced pERK levels and Usp5 activity.\nSimilar results were obtained in A375R Usp5 KD cells treated with a MEK inhibitor."}, "Usp7": {"target": "Usp7 (Homo sapiens, UniProt Q93009)", "assay": "DUB activity (HA-Ub labelling) in treated melanoma cells", "assay_type": "cell-based"}}, "note": "For at least one compound, name, drawing or mass did not settle the structure."}
{"compound": "CCCS(=O)(=O)Nc1ccc(F)c(C(=O)c2c[nH]c3ncc(-c4ccc(Cl)cc4)cc23)c1F", "note": "[vemurafenib, reference compound]", "values": [{"measurement": "Usp5 activity", "setting": "Usp5", "result": "suppressed Usp5 activity in sensitive but not resistance cells"}, {"measurement": "Usp7 activity", "setting": "Usp7", "result": "did not alter Usp7 activity"}]}
